Measured values as given in PMC11630066.
Results are given in words; binding and its absence hold for the method and conditions named. In cells and extracts the contact can be indirect.

Sequences of proteins named here, by UniProt entry; tags and fusion partners are left off.
UniProt P60953: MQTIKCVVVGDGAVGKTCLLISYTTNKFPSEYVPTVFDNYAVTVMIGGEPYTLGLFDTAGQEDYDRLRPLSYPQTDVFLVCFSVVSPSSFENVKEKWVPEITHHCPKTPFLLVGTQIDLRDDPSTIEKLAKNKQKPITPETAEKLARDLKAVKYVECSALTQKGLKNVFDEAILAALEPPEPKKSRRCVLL
UniProt P49841: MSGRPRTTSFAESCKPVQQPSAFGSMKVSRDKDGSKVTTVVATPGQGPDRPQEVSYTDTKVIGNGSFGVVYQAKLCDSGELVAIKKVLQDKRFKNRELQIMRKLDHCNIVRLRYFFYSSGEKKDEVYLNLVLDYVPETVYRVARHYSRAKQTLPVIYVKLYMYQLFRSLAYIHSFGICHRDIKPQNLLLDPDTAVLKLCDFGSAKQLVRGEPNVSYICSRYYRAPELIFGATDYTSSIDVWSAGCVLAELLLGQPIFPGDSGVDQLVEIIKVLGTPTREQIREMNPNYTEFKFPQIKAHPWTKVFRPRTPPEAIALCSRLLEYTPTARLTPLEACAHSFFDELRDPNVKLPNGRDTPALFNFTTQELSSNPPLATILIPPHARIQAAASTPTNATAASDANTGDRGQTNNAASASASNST

Molecular target: cell division cycle 42 (CDC42), endogenous (human (endogenous in T-EnSCs)) (UniProt P60953)
Experiment: co-IP; extracts of T-EnSCs, immunoprecipitation with CDC42 antibody or rabbit IgG control (5 μg, overnight 4°C, protein A/G beads), western blot of CDC42, GSK3β and AKT

binding: no binding
Substance: GSK3β, endogenous (from UniProt P49841 1-420)
